Laboratory results reported in the supplement of paper PMC10849652.
The other results are listed elsewhere or left out.

Amino acid sequences for entries named in this document (tags omitted). A change or cut given only in a name is not applied to a line headed by its entry.
UniProt Q96A37: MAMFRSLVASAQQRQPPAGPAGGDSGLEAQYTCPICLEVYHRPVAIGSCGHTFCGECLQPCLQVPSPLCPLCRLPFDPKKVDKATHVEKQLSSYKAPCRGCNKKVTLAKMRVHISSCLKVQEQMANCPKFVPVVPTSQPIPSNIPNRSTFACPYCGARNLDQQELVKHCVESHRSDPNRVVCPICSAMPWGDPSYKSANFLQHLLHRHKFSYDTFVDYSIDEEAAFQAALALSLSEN
UniProt Q8IUF8: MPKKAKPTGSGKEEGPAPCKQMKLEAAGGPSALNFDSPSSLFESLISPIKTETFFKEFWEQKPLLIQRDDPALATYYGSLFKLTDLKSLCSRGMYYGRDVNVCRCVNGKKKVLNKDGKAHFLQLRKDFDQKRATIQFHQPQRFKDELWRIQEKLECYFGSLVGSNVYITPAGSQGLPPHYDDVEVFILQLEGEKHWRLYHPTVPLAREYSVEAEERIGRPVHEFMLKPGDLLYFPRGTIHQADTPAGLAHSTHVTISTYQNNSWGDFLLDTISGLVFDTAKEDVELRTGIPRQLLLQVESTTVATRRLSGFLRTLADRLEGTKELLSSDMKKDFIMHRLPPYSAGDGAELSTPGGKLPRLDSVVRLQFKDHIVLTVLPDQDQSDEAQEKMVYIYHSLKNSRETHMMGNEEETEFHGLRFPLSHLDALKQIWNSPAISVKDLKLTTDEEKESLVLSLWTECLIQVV
UniProt Q5VTR2, whole entry, looked up: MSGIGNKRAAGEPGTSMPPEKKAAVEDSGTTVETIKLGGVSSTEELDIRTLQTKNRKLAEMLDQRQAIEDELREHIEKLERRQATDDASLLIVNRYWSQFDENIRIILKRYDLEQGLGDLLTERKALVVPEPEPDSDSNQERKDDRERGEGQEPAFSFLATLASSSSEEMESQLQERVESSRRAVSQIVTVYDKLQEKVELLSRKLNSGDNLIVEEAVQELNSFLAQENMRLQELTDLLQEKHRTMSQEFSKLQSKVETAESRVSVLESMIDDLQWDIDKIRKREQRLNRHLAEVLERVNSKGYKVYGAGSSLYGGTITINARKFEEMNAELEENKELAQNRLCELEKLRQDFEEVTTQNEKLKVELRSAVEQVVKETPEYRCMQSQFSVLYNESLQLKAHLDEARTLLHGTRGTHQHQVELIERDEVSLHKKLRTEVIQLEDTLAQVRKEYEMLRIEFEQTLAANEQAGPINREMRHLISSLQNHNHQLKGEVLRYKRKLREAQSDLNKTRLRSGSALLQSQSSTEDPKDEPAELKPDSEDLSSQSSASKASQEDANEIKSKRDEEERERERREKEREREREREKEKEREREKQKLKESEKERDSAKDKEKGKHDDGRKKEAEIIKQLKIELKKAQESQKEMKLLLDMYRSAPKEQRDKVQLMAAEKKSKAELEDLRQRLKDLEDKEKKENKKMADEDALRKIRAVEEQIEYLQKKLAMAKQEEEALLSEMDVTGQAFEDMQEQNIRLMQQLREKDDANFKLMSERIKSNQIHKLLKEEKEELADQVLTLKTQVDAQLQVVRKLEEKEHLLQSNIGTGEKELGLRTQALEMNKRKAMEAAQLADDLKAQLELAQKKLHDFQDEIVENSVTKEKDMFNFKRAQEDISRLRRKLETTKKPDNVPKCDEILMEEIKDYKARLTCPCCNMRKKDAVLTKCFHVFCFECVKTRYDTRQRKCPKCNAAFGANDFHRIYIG
UniProt Q9BRS2: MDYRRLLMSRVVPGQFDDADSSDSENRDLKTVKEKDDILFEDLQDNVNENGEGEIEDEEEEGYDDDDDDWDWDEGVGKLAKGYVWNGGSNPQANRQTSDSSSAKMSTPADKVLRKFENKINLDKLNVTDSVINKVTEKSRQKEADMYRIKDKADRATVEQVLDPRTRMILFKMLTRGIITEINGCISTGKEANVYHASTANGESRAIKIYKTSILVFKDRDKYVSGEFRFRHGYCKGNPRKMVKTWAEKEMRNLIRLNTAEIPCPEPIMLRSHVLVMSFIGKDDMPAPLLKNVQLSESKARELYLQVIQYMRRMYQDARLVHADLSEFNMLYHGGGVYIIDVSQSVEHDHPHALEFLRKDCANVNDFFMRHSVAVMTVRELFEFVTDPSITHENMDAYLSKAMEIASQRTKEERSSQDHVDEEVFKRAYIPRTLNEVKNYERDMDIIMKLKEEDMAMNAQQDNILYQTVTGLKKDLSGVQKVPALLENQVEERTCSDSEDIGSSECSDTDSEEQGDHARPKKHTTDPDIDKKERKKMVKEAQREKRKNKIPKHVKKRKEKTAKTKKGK
UniProt O15541: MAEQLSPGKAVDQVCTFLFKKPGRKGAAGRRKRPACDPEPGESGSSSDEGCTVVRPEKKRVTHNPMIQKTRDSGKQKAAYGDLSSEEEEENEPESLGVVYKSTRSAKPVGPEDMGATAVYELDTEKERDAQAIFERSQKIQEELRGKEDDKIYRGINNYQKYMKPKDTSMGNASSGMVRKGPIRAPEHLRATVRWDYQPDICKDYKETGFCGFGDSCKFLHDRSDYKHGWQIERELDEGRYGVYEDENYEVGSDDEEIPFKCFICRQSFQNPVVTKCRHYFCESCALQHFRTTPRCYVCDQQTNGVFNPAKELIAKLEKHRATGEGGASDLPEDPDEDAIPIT
UniProt Q5TBB1: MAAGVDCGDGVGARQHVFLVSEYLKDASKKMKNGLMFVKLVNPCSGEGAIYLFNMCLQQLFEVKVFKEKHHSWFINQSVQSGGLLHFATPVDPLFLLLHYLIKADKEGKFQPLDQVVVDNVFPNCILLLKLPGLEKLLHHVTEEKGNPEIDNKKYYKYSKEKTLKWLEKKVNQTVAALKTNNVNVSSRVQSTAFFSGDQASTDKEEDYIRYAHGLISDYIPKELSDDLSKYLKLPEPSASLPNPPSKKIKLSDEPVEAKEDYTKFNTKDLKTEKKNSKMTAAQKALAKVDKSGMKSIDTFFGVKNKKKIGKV
UniProt Q96AT9: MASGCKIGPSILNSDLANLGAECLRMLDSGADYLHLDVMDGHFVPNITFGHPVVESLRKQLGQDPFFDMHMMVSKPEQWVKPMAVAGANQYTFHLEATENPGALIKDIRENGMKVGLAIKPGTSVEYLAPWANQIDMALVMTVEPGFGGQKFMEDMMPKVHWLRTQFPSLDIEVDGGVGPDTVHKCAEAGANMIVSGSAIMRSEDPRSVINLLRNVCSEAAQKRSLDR
UniProt Q7L0Q8: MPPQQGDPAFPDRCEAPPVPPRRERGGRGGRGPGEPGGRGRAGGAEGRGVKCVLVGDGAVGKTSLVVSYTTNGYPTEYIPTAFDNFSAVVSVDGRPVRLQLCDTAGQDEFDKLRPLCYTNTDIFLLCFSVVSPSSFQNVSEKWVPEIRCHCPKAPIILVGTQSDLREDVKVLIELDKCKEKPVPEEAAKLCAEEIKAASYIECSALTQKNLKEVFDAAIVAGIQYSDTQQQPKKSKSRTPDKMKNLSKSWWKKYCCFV
UniProt Q6ZS17: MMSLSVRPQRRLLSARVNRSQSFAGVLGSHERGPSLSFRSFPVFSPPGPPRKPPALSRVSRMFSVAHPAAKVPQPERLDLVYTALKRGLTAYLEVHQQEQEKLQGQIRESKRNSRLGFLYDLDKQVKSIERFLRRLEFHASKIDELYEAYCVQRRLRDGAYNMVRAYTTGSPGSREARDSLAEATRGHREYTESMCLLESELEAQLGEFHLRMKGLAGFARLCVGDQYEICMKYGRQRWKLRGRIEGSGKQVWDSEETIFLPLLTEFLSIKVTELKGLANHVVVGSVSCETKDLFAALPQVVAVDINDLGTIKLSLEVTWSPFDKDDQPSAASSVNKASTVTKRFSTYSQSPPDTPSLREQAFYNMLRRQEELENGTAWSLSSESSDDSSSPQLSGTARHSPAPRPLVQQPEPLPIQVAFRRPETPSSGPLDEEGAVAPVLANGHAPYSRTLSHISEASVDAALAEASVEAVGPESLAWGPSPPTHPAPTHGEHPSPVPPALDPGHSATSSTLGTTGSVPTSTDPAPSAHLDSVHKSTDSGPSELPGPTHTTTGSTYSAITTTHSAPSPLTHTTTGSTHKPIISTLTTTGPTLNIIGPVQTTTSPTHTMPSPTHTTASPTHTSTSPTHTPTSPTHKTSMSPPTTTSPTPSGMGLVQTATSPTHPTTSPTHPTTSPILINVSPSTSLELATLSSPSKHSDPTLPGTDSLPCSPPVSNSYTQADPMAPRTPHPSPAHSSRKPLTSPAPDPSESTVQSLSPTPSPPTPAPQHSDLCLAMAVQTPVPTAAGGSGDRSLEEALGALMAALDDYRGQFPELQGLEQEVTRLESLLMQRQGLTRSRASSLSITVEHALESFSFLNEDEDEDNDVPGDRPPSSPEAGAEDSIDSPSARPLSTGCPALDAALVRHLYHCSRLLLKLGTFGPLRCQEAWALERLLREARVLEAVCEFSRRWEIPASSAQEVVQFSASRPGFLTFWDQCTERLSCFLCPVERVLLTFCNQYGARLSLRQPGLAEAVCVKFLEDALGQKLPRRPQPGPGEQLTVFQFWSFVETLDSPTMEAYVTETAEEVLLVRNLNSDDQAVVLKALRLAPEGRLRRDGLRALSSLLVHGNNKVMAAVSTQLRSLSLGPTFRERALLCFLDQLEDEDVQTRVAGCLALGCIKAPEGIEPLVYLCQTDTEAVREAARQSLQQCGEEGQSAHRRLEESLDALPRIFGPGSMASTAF
UniProt P61586, whole entry, looked up: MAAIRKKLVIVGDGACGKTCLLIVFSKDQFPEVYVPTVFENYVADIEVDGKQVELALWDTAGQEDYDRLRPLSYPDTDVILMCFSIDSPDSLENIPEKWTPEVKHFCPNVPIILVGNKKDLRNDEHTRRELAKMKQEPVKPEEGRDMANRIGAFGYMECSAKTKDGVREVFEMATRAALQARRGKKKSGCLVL
UniProt P10155: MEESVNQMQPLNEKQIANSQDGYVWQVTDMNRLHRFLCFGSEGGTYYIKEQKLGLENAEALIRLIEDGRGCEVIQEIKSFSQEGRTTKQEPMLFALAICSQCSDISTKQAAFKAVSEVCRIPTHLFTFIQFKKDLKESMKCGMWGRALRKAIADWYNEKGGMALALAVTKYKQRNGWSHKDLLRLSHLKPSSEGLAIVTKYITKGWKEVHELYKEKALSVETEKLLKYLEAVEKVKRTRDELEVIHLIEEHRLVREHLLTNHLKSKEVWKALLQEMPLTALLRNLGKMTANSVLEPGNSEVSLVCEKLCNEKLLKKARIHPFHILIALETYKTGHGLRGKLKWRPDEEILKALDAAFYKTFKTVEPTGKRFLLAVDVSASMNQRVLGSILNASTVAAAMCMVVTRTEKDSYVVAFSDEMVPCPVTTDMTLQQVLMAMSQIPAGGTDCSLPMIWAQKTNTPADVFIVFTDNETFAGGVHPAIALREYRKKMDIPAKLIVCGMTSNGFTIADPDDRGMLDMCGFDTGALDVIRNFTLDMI
UniProt Q8NC42: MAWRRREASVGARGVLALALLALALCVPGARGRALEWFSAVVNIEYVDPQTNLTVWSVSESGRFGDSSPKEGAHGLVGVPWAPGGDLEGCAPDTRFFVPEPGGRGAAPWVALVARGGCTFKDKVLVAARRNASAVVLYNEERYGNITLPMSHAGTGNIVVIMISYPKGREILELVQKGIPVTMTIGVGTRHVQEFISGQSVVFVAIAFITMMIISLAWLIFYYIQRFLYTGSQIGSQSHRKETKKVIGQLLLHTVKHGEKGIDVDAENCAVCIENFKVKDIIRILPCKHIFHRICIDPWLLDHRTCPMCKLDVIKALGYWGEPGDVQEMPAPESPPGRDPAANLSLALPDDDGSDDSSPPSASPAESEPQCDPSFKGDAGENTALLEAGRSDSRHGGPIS
UniProt Q9H4A4: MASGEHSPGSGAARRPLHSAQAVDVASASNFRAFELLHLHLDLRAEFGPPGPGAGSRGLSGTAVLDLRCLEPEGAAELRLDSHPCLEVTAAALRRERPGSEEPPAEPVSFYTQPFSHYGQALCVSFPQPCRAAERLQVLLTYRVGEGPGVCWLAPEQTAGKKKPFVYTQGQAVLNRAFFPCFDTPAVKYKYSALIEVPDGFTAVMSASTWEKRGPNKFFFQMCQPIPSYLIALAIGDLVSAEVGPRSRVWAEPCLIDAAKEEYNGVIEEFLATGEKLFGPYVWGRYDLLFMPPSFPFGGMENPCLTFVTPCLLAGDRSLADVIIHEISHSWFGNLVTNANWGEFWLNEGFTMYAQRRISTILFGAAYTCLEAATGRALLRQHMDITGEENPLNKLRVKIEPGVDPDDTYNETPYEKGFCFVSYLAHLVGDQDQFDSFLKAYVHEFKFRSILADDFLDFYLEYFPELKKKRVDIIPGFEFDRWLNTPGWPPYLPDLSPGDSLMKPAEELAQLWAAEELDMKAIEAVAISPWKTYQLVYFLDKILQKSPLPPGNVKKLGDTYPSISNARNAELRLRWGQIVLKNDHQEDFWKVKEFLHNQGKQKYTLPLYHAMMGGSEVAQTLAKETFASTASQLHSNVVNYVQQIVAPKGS

Legend:
Assay in all cases: log2 fold change, soluble protein after heating vs DMSO (PISA); higher = thermal stabilisation; K562 lysate, 10 uM; active = over 0.2 and 3.5 SD of the protein, either way, in both replicates (recomputed)
alvocidib = compound: CN1CC[C@H](c2c(O)cc(O)c3c(=O)cc(-c4ccccc4Cl)oc23)[C@H](O)C1 [alvocidib]
Procedure, shortened: (§1)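 Soluble protein was defined as the supernatant remaining after 21,000xg for 90 min, following pooling of heated aliquots and adjustment to 0.5% NP-40 at 4°C. Before that, crude K562 extract at 1 mg/mL protein in PBS pH 7.4 with 1 mM MgCl2 was treated with 10 μM compound for 30 min and heated for 3 min across 48°C-58°C. Quantification used TMTpro 16plex LC-MS/MS with channel sums equalised, and values are log-two fold changes in thermal stability relative to solvent controls from duplicates.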

Tubastatin A = compound: CN1CCc2c(c3ccccc3n2Cc2ccc(C(=O)NO)cc2)C1 [Tubastatin A]
Procedure, shortened: as §1

[1] = compound: CNC(=O)C1=CC=CC=C1NC2=NC(=NC=C2Cl)NC3=C(C=C(C=C3)N4CCOCC4)OC
Procedure, shortened: as §1

defactinib = compound: CNC(=O)c1ccc(Nc2ncc(C(F)(F)F)c(NCc3nccnc3N(C)S(C)(=O)=O)n2)cc1 [defactinib]
Procedure, shortened: as §1

[2] = compound: CNc1nc(-c2ccc3c(N)n[nH]c3c2)cc(N2C[C@@H](C(=O)NC3CCCCC3)CC[C@H]2C)n1
Procedure, shortened: as §1

encorafenib = compound: COC(=O)N[C@@H](C)CNc1nccc(-c2cn(C(C)C)nc2-c2cc(Cl)cc(NS(C)(=O)=O)c2F)n1 [encorafenib]
Procedure, shortened: as §1

[3] = compound: COC(=O)[C@H](CCSC)NC(=O)C1=C(C=C(C=C1)NC[C@H](CS)N)C2=CC=CC=C2
Procedure, shortened: as §1

alisertib = compound: COc1cc(Nc2ncc3c(n2)-c2ccc(Cl)cc2C(c2c(F)cccc2OC)=NC3)ccc1C(=O)O [alisertib]
Procedure, shortened: as §1

[4] = compound: COc1cc2nc(-c3cc(F)ccc3O)nc(N[C@@H]3CNC[C@H]3C(C)(C)O)c2cc1OC
Procedure, shortened: as §1

gefitinib = compound: COc1cc2ncnc(Nc3ccc(F)c(Cl)c3)c2cc1OCCCN1CCOCC1 [gefitinib]
Procedure, shortened: as §1

Measured: log2 fold change

RNF166 (UniProt Q96A37)
inactive: alvocidib -0.079 | Tubastatin A 0.2 | [1] -0.071 | defactinib 0.046 | [2] -0.008 | encorafenib 0.031 | [3] -0.031 | alisertib 0.143 | [4] -0.165 | gefitinib -0.141

RIOX2 (UniProt Q8IUF8)
inactive: alvocidib 0.038 | Tubastatin A -0.002 | [1] 0.01 | defactinib 0.09 | [2] 0.014 | encorafenib -0.021 | [3] 0.184 | alisertib -0.009 | [4] 0.007 | gefitinib -0.011

RPL35 (UniProt P42766)
inactive: alvocidib -0.014 | Tubastatin A 0.065 | [1] -0.033 | defactinib -0.039 | [2] 0.054 | encorafenib -0.05 | [3] -0.017 | alisertib 0.059 | [4] -0.054 | gefitinib -0.077

RPL28 (UniProt P46779)
inactive: alvocidib 0.03 | Tubastatin A 0.006 | [1] -0.009 | defactinib -0.018 | [2] 0.036 | encorafenib 0.012 | [3] -0.014 | alisertib 0.011 | [4] -0.005 | gefitinib -0.058

RPL18 (UniProt Q07020)
inactive: alvocidib -0.02 | Tubastatin A 0.026 | [1] -0.016 | defactinib 0.011 | [2] 0.023 | encorafenib -0.027 | [3] -0.007 | alisertib 0.039 | [4] -0.021 | gefitinib -0.025

RPL27 (UniProt P61353)
inactive: alvocidib 0.049 | Tubastatin A 0.009 | [1] -0.015 | defactinib 0.006 | [2] 0.056 | encorafenib -0.015 | [3] 0.012 | alisertib 0.006 | [4] 0.006 | gefitinib -0.023

RPL31 (UniProt P62899)
inactive: alvocidib -0.013 | Tubastatin A 0.032 | [1] -0.042 | defactinib -0.024 | [2] 0.044 | encorafenib -0.016 | [3] 0.035 | alisertib 0.033 | [4] -0.015 | gefitinib -0.035

RPL32 (UniProt P62910)
inactive: alvocidib 0.039 | Tubastatin A -0.037 | [1] 0.009 | defactinib 0.087 | [2] 0.02 | encorafenib 0.001 | [3] -0.034 | alisertib 0.004 | [4] -0.023 | gefitinib -0.015

RNF20 (UniProt Q5VTR2)
inactive: alvocidib -0.005 | Tubastatin A 0.014 | [1] -0.003 | defactinib -0.013 | [2] -0.011 | encorafenib 0.008 | [3] -0.079 | alisertib -0.004 | [4] 0.017 | gefitinib 0.033

RIOK1 (UniProt Q9BRS2)
inactive: alvocidib 0 | Tubastatin A 0.005 | [1] 0.008 | defactinib -0.009 | encorafenib 0.006 | [3] -0.006 | alisertib 0.01 | [4] 0.168 | gefitinib -0.019
active: [2] 0.413

RNF213, A0A0A0MTC1
inactive: alvocidib -0.003 | Tubastatin A -0.081 | [1] 0.023 | defactinib -0.02 | [2] -0.04 | encorafenib 0.054 | [3] -0.061 | alisertib 0.013 | [4] 0.012 | gefitinib -0.012

RPL36 (UniProt Q9Y3U8)
inactive: alvocidib -0.023 | Tubastatin A 0.002 | [1] -0.02 | defactinib 0.004 | [2] 0.055 | encorafenib 0.01 | [3] -0.047 | alisertib 0.023 | [4] -0.001 | gefitinib -0.013

RPL23A (UniProt P62750)
inactive: alvocidib 0.065 | Tubastatin A 0.046 | [1] 0.05 | defactinib -0.015 | [2] 0.024 | encorafenib -0.019 | [3] 0.013 | alisertib -0.006 | [4] 0.007 | gefitinib -0.044

RNF113A (UniProt O15541)
inactive: alvocidib -0.062 | Tubastatin A 0.05 | [1] 0.014 | defactinib -0.013 | [2] 0.022 | encorafenib -0.019 | [3] -0.017 | alisertib -0.015 | [4] 0.015 | gefitinib 0.004

RNF40 (UniProt O75150)
inactive: alvocidib -0.003 | Tubastatin A -0.102 | [1] 0.023 | defactinib 0.022 | [2] -0.006 | encorafenib 0.015 | [3] 0.079 | alisertib -0.002 | [4] 0 | gefitinib 0.013

RPL21 (UniProt P46778)
inactive: alvocidib -0.013 | Tubastatin A 0.055 | [1] -0.042 | defactinib -0.024 | [2] 0.096 | encorafenib -0.027 | [3] 0.028 | alisertib 0.036 | [4] 0.002 | gefitinib -0.057

RNASEH2B (UniProt Q5TBB1)
active: [3] 0.338
inactive: alvocidib 0.05 | Tubastatin A -0.046 | [1] -0.003 | defactinib 0.092 | [2] -0.021 | encorafenib 0.035 | alisertib -0.031 | [4] -0.038 | gefitinib -0.031

RPL17 isoform 3 (UniProt P18621)
inactive: alvocidib 0.031 | Tubastatin A 0.017 | [1] 0.001 | defactinib 0.047 | [2] 0.007 | encorafenib 0.004 | [3] -0.018 | alisertib -0.001 | [4] -0.023 | gefitinib -0.048

RPL19 (UniProt P84098)
inactive: alvocidib 0.072 | Tubastatin A -0.015 | [1] -0.008 | defactinib 0.029 | [2] 0.015 | encorafenib 0.012 | [3] -0.017 | alisertib 0.005 | [4] 0.009 | gefitinib -0.031

RPE (UniProt Q96AT9)
inactive: alvocidib -0.051 | Tubastatin A 0.024 | [1] -0.055 | defactinib 0.1 | [2] 0.1 | encorafenib 0.112 | [3] 0.021 | alisertib -0.045 | [4] -0.067 | gefitinib -0.049

RHOU (UniProt Q7L0Q8)
inactive: alvocidib 0.007 | Tubastatin A 0.005 | [1] -0.036 | defactinib -0.073 | [2] -0.17 | encorafenib -0.088 | [3] 0.164 | alisertib -0.014 | [4] 0.024 | gefitinib -0.017

RIPOR1 isoform 4 (UniProt Q6ZS17)
inactive: alvocidib 0.042 | Tubastatin A -0.013 | [1] 0.029 | defactinib -0.099 | [2] -0.006 | encorafenib 0.039 | [3] 0.098 | alisertib 0.019 | [4] 0.202 | gefitinib 0.032

Two successive records out of the list so far, for reference:
RPL17 isoform 3 (UniProt P18621)
inactive: alvocidib 0.031 | Tubastatin A 0.017 | [1] 0.001 | defactinib 0.047 | [2] 0.007 | encorafenib 0.004 | [3] -0.018 | alisertib -0.001 | [4] -0.023 | gefitinib -0.048

RPL19 (UniProt P84098)
inactive: alvocidib 0.072 | Tubastatin A -0.015 | [1] -0.008 | defactinib 0.029 | [2] 0.015 | encorafenib 0.012 | [3] -0.017 | alisertib 0.005 | [4] 0.009 | gefitinib -0.031

(list continues)

RPL13A (UniProt P40429)
inactive: alvocidib 0.009 | Tubastatin A 0.018 | [1] -0.044 | defactinib -0.031 | [2] 0.022 | encorafenib -0.011 | [3] 0.027 | alisertib -0.006 | [4] 0.023 | gefitinib -0.006

RHOA (UniProt P61586)
inactive: alvocidib 0.093 | Tubastatin A -0.078 | [1] 0.087 | defactinib -0.029 | [2] -0.003 | encorafenib -0.042 | [3] -0.046 | alisertib 0.072 | [4] 0.029 | gefitinib 0.078

RO60 (UniProt P10155)
inactive: alvocidib 0.046 | Tubastatin A 0.02 | [1] 0.011 | defactinib 0.011 | [2] -0.011 | encorafenib 0 | [3] -0.044 | alisertib 0.014 | [4] -0.006 | gefitinib 0.019

RNF149 (UniProt Q8NC42)
inactive: alvocidib -0.038 | Tubastatin A -0.047 | [1] 0.02 | defactinib 0.028 | [2] 0.004 | [4] -0.059 | gefitinib -0.075
active: alisertib -0.483

RPL10A (UniProt P62906)
inactive: alvocidib 0.01 | Tubastatin A 0.035 | [1] -0.006 | defactinib 0.012 | [2] 0.015 | encorafenib 0.018 | [3] -0.003 | alisertib 0.008 | [4] 0.009 | gefitinib -0.014

RNPEP (UniProt Q9H4A4)
inactive: alvocidib -0.019 | Tubastatin A 0.013 | [1] -0.003 | defactinib -0.013 | [2] -0.002 | encorafenib -0.006 | [3] -0.027 | alisertib 0 | [4] -0.015 | gefitinib -0.027
